We go through one molecule from ChEMBL document CHEMBL1132410, “5-Chloro-N-(4-methoxy-3-piperazin-1-yl- phenyl)-3-methyl-2-benzothiophenesulfon- amide (SB-271046): a potent, selective, and orally bioavailable 5-HT6 receptor antagonist” (J Med Chem, 1999).

The chains behind the UniProt entries cited, without tags or fusion partners.
UniProt P50406, whole entry: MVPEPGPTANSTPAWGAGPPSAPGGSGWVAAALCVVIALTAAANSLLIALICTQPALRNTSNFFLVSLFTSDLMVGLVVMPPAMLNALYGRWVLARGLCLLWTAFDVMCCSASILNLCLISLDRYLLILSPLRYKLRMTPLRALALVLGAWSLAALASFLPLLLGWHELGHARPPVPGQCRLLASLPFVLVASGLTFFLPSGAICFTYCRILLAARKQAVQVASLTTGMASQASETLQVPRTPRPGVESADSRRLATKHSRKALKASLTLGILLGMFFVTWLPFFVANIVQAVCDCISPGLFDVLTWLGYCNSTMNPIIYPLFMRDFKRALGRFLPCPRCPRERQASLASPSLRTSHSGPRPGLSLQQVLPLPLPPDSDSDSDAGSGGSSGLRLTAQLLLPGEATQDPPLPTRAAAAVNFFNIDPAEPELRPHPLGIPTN

The experiment addresses 5-hydroxytryptamine receptor 6 (Homo sapiens, UniProt P50406). In words: Binding affinity against human cloned 5-hydroxytryptamine 6 receptor in HeLa cells using [3H]LSD. It is filed as cell-based. Summed up:
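Radioligand binding at human cloned receptors; cell hosts and radioligands as listed per line: 5-HT1A, 5-HT2A, 5-HT2B, 5-HT2C and 5-HT7 in HEK 293 cells; 5-HT1B, 5-HT1D, 5-HT1E, 5-HT1F, D2 and D3 in CHO cells; 5-HT6 in HeLa cells. Values are the mean of at least two determinations, each within 0.2 log unit of the mean.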

`COc1ccc(NS(=O)(=O)c2ccc(I)cc2)cc1N1CCN(C)CC1` had a Ki of 2.51 nM.

Usually Ki stands for the dissociation constant of the complex between target and ligand, obtained from inhibition or displacement. High values mean weaker binding, low ones tighter binding.
